No constants are given. Whether binding was seen depends on the method and setting. Binding seen in cells or lysates may run through a third protein. Binding can be weak; no strength is given.
Assays:
[1] = target: Flag epitope-tagged full-length HCV core protein (Hepatitis C virus (genotype and isolate not stated)); assay: co-IP; Huh7 cells transfected with Flag-tagged core; lysates (1% Triton X-100, 100 mM Tris-HCl pH 8.0, 150 mM NaCl) immunoprecipitated with anti-Flag-M2 affinity resin (1 h, 4°C, with 2 μg/ml RNaseA) or anti-GLD-2 antibody, then immunoblotting
[2] = target: GFP-C(151–191), EGFP-fused HCV core protein deletion derivative (Hepatitis C virus (genotype and isolate not stated)); assay: co-IP; Huh7 cells transiently expressing GFP-fused core proteins; co-immunoprecipitation with endogenous GLD-2 (Fig 6F); precipitating antibody not told

B1: GLD-2, non-canonical cytoplasmic poly(A) polymerase (enzyme, UniProt Q6PIY7 1-484)
chain: MFPNSILGRPPFTPNHQQHNNFFTLSPTVYSHQQLIDAQFNFQNADLSRAVSLQQLTYGNVSPIQTSASPLFRGRKRLSDEKNLPLDGKRQRFHSPHQEPTVVNQIVPLSGERRYSMPPLFHTHYVPDIVRCVPPFREIAFLEPREITLPEAKDKLSQQILELFETCQQQISDLKKKELCRTQLQREIQLLFPQSRLFLVGSSLNGFGTRSSDGDLCLVVKEEPCFFQVNQKTEARHILTLVHKHFCTRLSGYIERPQLIRAKVPIVKFRDKVSCVEFDLNVNNIVGIRNTFLLRTYAYLENRVRPLVLVIKKWASHHQINDASRGTLSSYSLVLMVLHYLQTLPEPILPSLQKIYPESFSPAIQLHLVHQAPCNVPPYLSKNESNLGDLLLGFLKYYATEFDWNSQMISVREAKAIPRPDGIEWRNKYICVEEPFDGTNTARAVHEKQKFDMIKDQFLKSWHRLKNKRDLNSILPVRAAVLKR
binding [1]: binds | binding [2]: binds
